In PubChem BioAssay AID1487 (National Center for Advancing Translational Sciences (NCATS), 2009):
Some of the results follow. Further columns of the screen follow, without active or inactive calls. The list favours compounds with an active or inconclusive main result. Potencies come from curve fits of mixed quality, noted in brackets.

Assay: qHTS Assay for Modulators of Lamin A Splicing
Conditions: HeLa LMNA splicing GFP/RFP minigene ratio, 48 h
How it was run: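 S3 HeLa cells stably expressing lamin A-EGFP splicing minigene plus DsRed2, 600 cells/well, 48 h compound exposure at 37C. Laser-scanning cytometry; analysed as GFP (500-530 nm)/RFP (575-640 nm) total intensity ratio; 0.5% DMSO vehicle.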

[1] = measured here: RFP viability control channel
[2] = measured here: GFP splicing reporter channel

SMILES | AC50 [1] | AC50 [2]
COCCn1c(=S)[nH]c2cc(C(=O)N3CCc4ccccc43)ccc2c1=O | 12.6 µM [rising, partial curve] | 
COc1c(OC(C)=O)ccc(/C=C/c2ccc3cccc(OCc4ccccc4)c3n2)c1[N+](=O)[O-] | 22.4 µM [falling, single point] | 22.4 µM [falling, partial curve, poor fit]
CCOC(=O)c1c(C)[nH]c(C(=O)OCC(=O)NC(C)C)c1C | 12.6 µM [rising, partial curve] | 
O=C(c1ccc(Cl)c(S(=O)(=O)N2CCCC2)c1)N1CCN(c2ccc(F)cc2)CC1 |  | 22.4 µM [falling, single point]
COc1ccc(C(=O)c2no[n+]([O-])c2C(=O)c2ccc(OC)cc2)cc1 | 28.2 µM [falling, single point] | 
CCOC(=O)C1(Cc2ccc(OC)cc2)CCN(C(=O)c2ccc3[nH]ccc3c2)CC1 | 0.00355 µM [falling, full curve, poor fit] | 
CCC(C)NS(=O)(=O)c1ccc(S(=O)(=O)N(CC(=O)Nc2ccccc2)Cc2ccco2)cc1 (stereo not given) | 22.4 µM [rising, single point] | 12.6 µM [rising, partial curve]
CCC(C(=O)OCC(=O)Nc1cc(Cl)cc(Cl)c1)c1ccccc1 (stereo not given) |  | 22.4 µM [rising, single point]
O=C(NC(=S)Nc1ccc(N2CCOCC2)c(Cl)c1)c1cncc(Br)c1 |  | 1.41 µM [rising, full curve, poor fit]
CCn1cnc2cc(NCc3ccc(N(C)C)cc3)ccc21 | 35.5 µM [falling, partial curve] | 
O=S(=O)(NCc1ccccn1)c1ccc(Cl)c(C(F)(F)F)c1 | 0.2 µM [falling, full curve, poor fit] | 0.355 µM [falling, full curve, poor fit]
COCCNC(=S)N/N=C1\CC(C)CC(C)(C)C1 (stereo not given) |  | 14.1 µM [rising, single point]
CC(=O)Nc1ccc(NC(=O)CSc2nc(C)nc3sc(C)c(C)c23)cc1 | 1.12 µM [rising, partial curve, poor fit] | 0.00447 µM [rising, full curve, poor fit]
Cc1ccc(C(=O)NCC(=O)OCC(=O)Nc2ccccc2[N+](=O)[O-])cc1 | 10 µM [falling, partial curve, poor fit] | 
CCCCCCCCCCCCOS(=O)(=O)O | 0.000891 µM [falling, full curve, poor fit] | 
O=C(Oc1ccc2c(c1)OCO2)c1ccncc1 | 0.01 µM [rising, full curve, poor fit] | 0.00447 µM [rising, full curve, poor fit]
O=C(CCl)Nc1c[nH]c(=O)[nH]c1=O | 20 µM [rising, single point] | 
C[C@@]12C=CC(=O)C=C1CCC1C3CC(O)[C@@](O)(C(=O)CO)[C@]3(C)CC(O)[C@]12F (stereo not given in full) | 3.16 µM [rising, single point] | 
COc1ccc(NC(=O)C(=O)NCCc2csc3nc(-c4ccccc4C)nn23)cc1 | 22.4 µM [falling, partial curve, poor fit] | 15.8 µM [falling, single point]
CCOc1ccc2c(c1)OC(c1ccc(C)cc1)(C(F)(F)F)NC2=O (stereo not given) | 5.62 µM [rising, single point] | 5.62 µM [rising, single point]
C/C(=N\NC(=O)CNc1cccc(C(F)(F)F)c1)c1ccc(Br)cc1 | 0.00316 µM [falling, full curve, poor fit] | 
Cc1ccc(CSc2nc3cccnc3n2Cc2nc(-c3ccccc3F)oc2C)cc1 | 0.316 µM [rising, single point] | 35.5 µM [falling, single point]
Cc1cccc(Cc2c(C)nc3c(C(=O)N4CCN(Cc5ccc6c(c5)OCO6)CC4)cnn3c2C)c1 | 7.94 µM [falling, partial curve, poor fit] | 0.501 µM [falling, partial curve, poor fit]
Cc1ccc(NC(=O)COC(=O)CCc2nc3ccccc3c(=O)[nH]2)c(Br)c1 | 0.00794 µM [falling, full curve, poor fit] | 0.00447 µM [falling, full curve, poor fit]
COc1cccc(/C=N/NC(=O)c2[nH]nc3c2CCc2ccccc2-3)c1O | 3.98 µM [rising, single point] | 35.5 µM [falling, single point]
CC(C)Cn1nnc2c(=O)oc3ccccc3c21 | 35.5 µM [falling, single point] | 22.4 µM [falling, single point]
CCCN(CCC)C(=O)C(CCC(=O)O)NC(=O)c1ccccc1 (stereo not given) | 0.501 µM [falling, full curve] | 

Part of the list above in another layout:

| SMILES | AC50 [1] | AC50 [2] |
| --- | --- | --- |
| CCOc1ccc2c(c1)OC(c1ccc(C)cc1)(C(F)(F)F)NC2=O (stereo not given) | 5.62 µM [rising, single point] | 5.62 µM [rising, single point] |
| C/C(=N\NC(=O)CNc1cccc(C(F)(F)F)c1)c1ccc(Br)cc1 | 0.00316 µM [falling, full curve, poor fit] |  |
| Cc1ccc(CSc2nc3cccnc3n2Cc2nc(-c3ccccc3F)oc2C)cc1 | 0.316 µM [rising, single point] | 35.5 µM [falling, single point] |

The list continues.

SMILES | AC50 [1] | AC50 [2]
Cc1cc(C)c(S(=O)(=O)Nc2ccc(-c3ccc(N4CCCCC4)nn3)cc2)cc1C |  | 2 µM [falling, full curve, poor fit]
O=C(c1ccc2c3c(cccc13)CC2)C1CCCN(C(=O)c2ccc(=O)[nH]c2)C1 (stereo not given) | 2.51 µM [falling, full curve, poor fit] | 8.91 µM [falling, partial curve, poor fit]
O=C(Nc1ccc(N2CCN(C(=O)c3ccco3)CC2)cc1)c1ccccc1F | 35.5 µM [rising, single point] | 
COc1ccc(N(C(=O)CNC(=O)c2cccs2)C(C(=O)NCC2CCCO2)c2ccccc2)cc1 (stereo not given) | 11.2 µM [falling, single point] | 11.2 µM [falling, partial curve, poor fit]
CCOC(=O)c1sc(NC(=O)COC(=O)CNC(=O)c2ccco2)c(C(=O)OCC)c1C | 14.1 µM [rising, single point] | 
O=C(c1ccc(Cl)c(Cl)c1)N(Cc1ccco1)c1ccc(O)cc1 | 22.4 µM [rising, single point] | 
Cc1ccc(Cn2c(Cc3ccccc3)nc3ccccc32)cc1 | 11.2 µM [rising, partial curve] | 5.01 µM [rising, partial curve]
CCOC(=O)C1=C(C)NC(C)=C(C(=O)OCC)C1c1ccc(OC)cc1 | 11.2 µM [rising, partial curve] | 
CC(C)CC(=O)N=C1SC2CS(=O)(=O)CC2N1Cc1ccccc1 (stereo not given) |  | 3.55 µM [rising, partial curve, poor fit]
O=C(Nc1cccc(-c2nc3ccccc3[nH]2)c1)c1cccc(NC(=O)c2ccco2)c1 | 35.5 µM [falling, single point] | 35.5 µM [falling, single point]
Cc1ccc(N(CC(=O)NCc2ccc(OC(C)C)cc2)S(=O)(=O)N(C)C)cc1 | 0.00398 µM [rising, full curve, poor fit] | 
CC(=O)Nc1ccc(NC(=O)Nc2ccccc2C)cc1 |  | 0.282 µM [rising, full curve, poor fit]
COc1cccc(N=Nc2c(N)[nH]n3c(=O)c4c(nc23)CCCC4)c1 |  | 35.5 µM [falling, single point]
O=C(c1ccco1)N1CCN(C(=S)Nc2cccc([N+](=O)[O-])c2)CC1 |  | 6.31 µM [falling, full curve, poor fit]
COC(=O)c1ccccc1O | 0.794 µM [falling, single point] | 0.891 µM [falling, single point]
Cc1ccc(NC(=O)CSC(N)=O)cc1Cl |  | 35.5 µM [rising, single point]
O=C(NCCc1ccc(Cl)cc1)c1ccc2c(c1)N(Cc1ccccc1)C(=O)CS2 | 0.02 µM [falling, full curve, poor fit] | 0.0447 µM [falling, full curve, poor fit]
O=C(ONC1=NCCCCC1)c1c(F)cccc1F | 10 µM [rising, single point] | 
O=c1ccc(C(F)(F)F)cn1Cc1cc(=O)n2ccsc2n1 | 2.82 µM [rising, full curve] | 7.94 µM [rising, partial curve]
CC1(c2cc([N+](=O)[O-])cc([N+](=O)[O-])c2)CC(C)(C)N(C(=O)c2ccccc2)c2ccccc21 (stereo not given) | 8.91 µM [rising, partial curve] | 11.2 µM [rising, partial curve]
CN(CCOc1ccccc1)S(=O)(=O)c1ccc2oc3ccccc3c2c1 | 11.2 µM [rising, single point] | 
CC1=CC(C)(C)N2C(=O)C3(SCC(=O)N3c3ccc(F)cc3)c3cc(C)cc1c32 (stereo not given) | 35.5 µM [rising, single point] | 31.6 µM [rising, single point]
CN1CCN(C(=S)Nc2ccc(Cl)cc2Cl)CC1 | 31.6 µM [rising, single point] | 35.5 µM [rising, single point]
Cc1nc2cc(Cl)ccc2n1-c1ccccc1 |  | 15.8 µM [rising, partial curve]
CC(=O)c1cccc(NC(=O)c2ccc(N(Cc3ccccc3C)S(C)(=O)=O)cc2)c1 | 15.8 µM [rising, single point] | 
Cc1ccc2oc(=O)n(CCCOc3ccccc3C)c2c1 | 0.631 µM [falling, partial curve, poor fit] | 
